Here are results for one molecule from patent US20260035450A1.

No constants are given. Whether binding was seen depends on the method and setting. Some binding calls cover weakened binding; strength is not graded here. Tags and fused reporters may be left off the sequences shown.

This experiment has as its target T1, Full-length His6-tagged hANGPTL3 (human) (UniProt Q9Y5C1).
T1 sequence: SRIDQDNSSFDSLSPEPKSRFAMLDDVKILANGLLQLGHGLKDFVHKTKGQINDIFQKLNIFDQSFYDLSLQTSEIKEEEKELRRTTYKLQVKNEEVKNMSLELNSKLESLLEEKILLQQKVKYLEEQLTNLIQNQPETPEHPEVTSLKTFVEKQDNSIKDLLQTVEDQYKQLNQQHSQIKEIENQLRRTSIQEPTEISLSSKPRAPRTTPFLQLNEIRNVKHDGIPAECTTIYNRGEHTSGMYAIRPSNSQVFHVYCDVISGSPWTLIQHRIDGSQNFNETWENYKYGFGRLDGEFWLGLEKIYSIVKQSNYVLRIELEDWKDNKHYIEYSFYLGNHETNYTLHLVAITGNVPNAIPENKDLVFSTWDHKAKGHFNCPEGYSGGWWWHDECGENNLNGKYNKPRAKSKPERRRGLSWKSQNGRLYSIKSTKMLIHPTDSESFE
The experiment is described as follows: SPR, His6-tagged hANGPTL3 captured by anti-His antibody, antibodies flowed at pH 6.0 and pH 7.4. A general note: Surface plasmon resonance follows binding to a sensor surface in real time, without labels.

B1: Antibodies containing the variable domains of the heavy and light chains of tmAb0.1 and tmAb1 (antibody, V domains shown)
VH: EVQLLESGGGLVQPGGSLRLSCAASGFNFRSYWMTWVRQAPGKGLEWVSSISSHSTYIYYADSVKGRFTISRDNSKNTLYLQMNSLRAEDTATYYCAREGWYDNWFDPWGQGTLVTVSS
VL: EIVLTQSPGTLSLSPGERATLSCRASQNIRSPYLAWYQQKPGQAPRLLIYGVSSRAAGIPDRFSGSGSGTDFTLTISRLEPEDFAVYYCQQYDDHPYTFGQGTKLEIK
With B1, the binding entry is “binds”.
